# In patent publication CN117990807A:
# Where a chain is given by its changes, count along the chain named. No constants are given. Whether binding was seen depends on the method and setting. Some results given as binding are weak or reduced against the parent protein; the word gives no strength.
# B1: 人源化抗TSLP单克隆抗体HA-Ⅰ (antibody, human IgG1, kappa, L234A L235A, V domains shown)
# VH: QVQLVQSGAEVKKPGASVKVSCKASGYTFTSYWMHWVRQAPGQGLEWIGLIDPSDSDTTYNQKFKGRATLTVDTSTSTAYMELSSLRSEDTAVYYCSRSLDGYFDHWGQGTLVTVSS
# VL: DIVMTQSPSSLSASVGDRVTITCRASENIYSYLAWYQQKPGKSPKLLVYNARTLAEGVPSRFSGSGSGTDFTLTISSLQPEDFATYYCQHHYGTPWTFGGGTKVEIKR
# B2: 人源化抗TSLP单克隆抗体HA-Ⅱ (antibody, human IgG1, kappa, L234A L235A, V domains shown)
# VH: B1 VH
# VL: B1 VL with S43A
# Biological target: 猴TSLP-His (食蟹猴TSLP) (cynomolgus monkey)
# Assay: ELISA, cynomolgus TSLP-His coated
row,Binder,binding
1,B1,binds
2,B2,binds
